The assay can be described thus: qHTS Assay for Lipid Storage Modulators in Drosophila S3 Cells.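 As to cell number change: cells counted by Cell Tracker Red CMTPX staining in the red channel.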 The note with it: BODIPY lipid droplet fluorescence, 18-24 h; for cell number change: measured here: cell count max response, cells fed with added oleic acid. A digest of the protocol: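 Drosophila S3 cells got compounds at several concentrations plus oleic acid (400 uM solution). Laser-scanning cytometry with 488 nm excitation read lipid droplets at 500-530 nm and cells at 575-640 nm. Percent activity was relative to 20 uM Triacsin C.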
Background: In qHTS, concentration-response curves come from the screen itself.

The mark [1] stands for this setting: measured here: lipid fluorescence (Fed channel) AC50, cells fed with added oleic acid.
The mark [2] stands for this setting: measured here: cell number channel AC50, cells fed with added oleic acid.

This is one part of the list. The main result of the screen is listed elsewhere. These columns were measured beside it and carry no call. Compounds called inactive in the main read-out are mostly missing here. The note in brackets gives the kind of curve behind each potency; many fits are weak.

Consider `CCOc1ccccc1-n1c(SCC(=O)NCc2ccco2)nnc1-c1ccncc1`, for which the cell number change was 8.38%. In addition, the AC50 under setting [1] is 1.3 µM [rising, full curve, poor fit].

For `O=C(NN1CCOCC1)c1cc(-c2ccccc2)nc2ccccc12`, the cell number change was found to be 23.3%. For the same molecule, under setting [1], the AC50 was 29.1 µM [rising, single point].

`O=C(c1ccccc1)c1cc(Cl)ccc1N1C(=O)C=CC1=O`: the cell number change was -56.9%. Under setting [2], the AC50 was 10.3 µM [falling, partial curve].

With `CCOC(=O)c1cn(CC)c2cc3c(cc2c1=O)OCO3`, the cell number change was -36.4%. For the same molecule, under setting [2], the half-maximal activity concentration (AC50) is 0.206 µM [falling, full curve]. Also, the concentration at half-maximal activity (AC50) under setting [1] was 0.206 µM [falling, full curve].

Take `COc1ccc2oc(C(=O)OC(C)C(=O)NCc3ccccc3)c(C)c2c1` (stereo unspecified): the cell number change is -8.8%. For the same molecule, under setting [1], the AC50 was 20.6 µM [falling, single point].

As to `COc1ccc(C=Nc2cccc3c(=O)[nH][nH]c(=O)c23)c2ccccc12`, the cell number change was 124%. Also, the AC50 under setting [2] was 8.2 µM [rising, partial curve]. In addition, under setting [1], the AC50 was 5.8 µM [rising, partial curve].

For the molecule `CCN(CC)S(=O)(=O)c1ccc(N2CCOCC2)c(NC(=O)c2ccc(N3CCCC3=O)cc2)c1`, the AC50 under setting [2] is 6.51 µM [falling, single point].

Turning to `Cc1ccc(-c2cc3ccccc3nc2N)cc1`, the cell number change was -43%. Besides, the AC50 under setting [2] is 29.1 µM [falling, single point]. Also, the AC50 under setting [1] was 29.1 µM [falling, single point].

For the molecule `Cc1n[nH]c(=O)nc1NCCc1ccccc1`, the cell number change came out at 6.15%. Also, the AC50 under setting [1] is 0.82 µM [falling, single point].

Turning to `Cc1nc2ccc(F)cc2cc1C(=O)Nc1ccc(Cl)c(Cl)c1`, the cell number change was -5.84%. Moreover, under setting [1], the concentration at half-maximal activity (AC50) was 20.6 µM [falling, single point].

Take `COc1ccccc1CCc1nnc(CCC(=O)NCCCOc2cccnc2)o1`: the cell number change is 9.41%. Moreover, the concentration at half-maximal activity (AC50) under setting [1] was 6.51 µM [rising, single point].

Take `Cc1ccc(N2C(=O)NC(NC(=O)c3ccc(Cl)cc3)(C(F)(F)F)C2=O)cc1` (stereo unspecified): the cell number change is -11.7%. For the same molecule, the AC50 under setting [1] was 9.2 µM [rising, partial curve].

As for `O=C(COc1cccc(Br)c1)NN=C1c2ccccc2-c2ccccc21`, the cell number change was -34.7%. Further, the concentration at half-maximal activity (AC50) under setting [2] was 18.4 µM [falling, single point].

Take `CC(=O)N/N=C(\N)c1nonc1N`: the AC50 under setting [1] was 5.8 µM [falling, full curve, poor fit].

As for `Cc1ccc(C(=O)NCCC(=O)N2CCC3(CC2)NCCc2[nH]cnc23)cc1C`, the cell number change stood at 4.58%. The AC50 under setting [1] is 29.1 µM [rising, single point].

In the case of `CC(C)c1ccc(C2=C(O)c3ccccc3C(=O)C2=O)cc1`, the cell number change is 24%. In addition, under setting [2], the AC50 is 2.31 µM [rising, full curve, poor fit]. The AC50 under setting [1] is 16.4 µM [rising, partial curve, poor fit].

With `CC(C)(Oc1ccc(Cl)cc1)C(=O)NCc1n[nH]c(=O)c2ccccc12`, the cell number change was 8.38%. In addition, under setting [1], the AC50 was 29.1 µM [falling, single point].

Regarding `O=[N+]([O-])c1ccc2c(c1)C(N1CCOCC1)/C(=C/COc1ccc(Cl)cc1Cl)O2` (stereo unspecified), the half-maximal activity concentration (AC50) under setting [1] was 6.51 µM [rising, single point].

Consider `COc1cc(C)c(S(=O)(=O)Nc2ccccc2F)cc1C`, for which the cell number change came out at 11.3%. Also, the half-maximal activity concentration (AC50) under setting [1] was 2.59 µM [rising, partial curve].

Consider `O=C(c1ccco1)c1cn(CC(=O)N2CCCCC2)c2ccccc12`, for which the cell number change was -20.7%. In addition, the AC50 under setting [1] is 29.1 µM [falling, single point].

On to `O=C(NCc1ccc2c(c1)OCO2)C1CC(=O)N(CCc2ccc(F)cc2)C1` (stereo unspecified), for which the cell number change was determined as 5.46%. For the same molecule, the AC50 under setting [1] is 6.51 µM [falling, single point].

For `Cc1nc(C)c(-c2csc(Nc3ccc(S(N)(=O)=O)cc3)n2)s1`, the cell number change is 8.79%. Under setting [1], the AC50 is 29.1 µM [falling, single point].

On to `Cc1ccc(C)c(S(=O)(=O)C(C#N)c2nc3ccccc3nc2N2CC(C)OC(C)C2)c1` (stereo unspecified), for which the cell number change was determined as 42.3%. Moreover, the AC50 under setting [2] is 1.84 µM [rising, full curve, poor fit]. For the same molecule, under setting [1], the half-maximal activity concentration (AC50) is 1.84 µM [rising, partial curve].

For the molecule `Cc1cc(C)cc(COn2ccnc2)c1`, the cell number change is 18.9%. For the same molecule, under setting [2], the concentration at half-maximal activity (AC50) was 0.651 µM [rising, full curve, poor fit]. Besides, the AC50 under setting [1] was 2.59 µM [rising, full curve].

In the case of `COc1ccc(NC(=O)c2coc(C)c2)cc1`, the cell number change came out at 18.4%. The AC50 under setting [2] is 0.146 µM [rising, full curve, poor fit].

For `O=C(CSc1nnc(NC(=O)C2CC(=O)N(c3ccc(F)cc3)C2)s1)NC1CCCC1` (stereo unspecified), the cell number change was -19.8%. Also, the AC50 under setting [2] is 2.59 µM [falling, full curve, poor fit].

With `CCOC(=O)c1sc2ncn(/N=C/c3ccc(O)cc3)c(=O)c2c1C`, the cell number change is -8.76%. In addition, the AC50 under setting [2] was 1.16 µM [rising, single point]. Besides, the half-maximal activity concentration (AC50) under setting [1] is 1.16 µM [rising, single point].

For `Cn1c(SCc2nnc(-c3ccc(F)cc3)o2)nnc1C1COc2ccccc2O1` (stereo unspecified), the half-maximal activity concentration (AC50) under setting [1] was 4.11 µM [rising, single point].

As to `Cn1c(SCC(=O)NNC(=O)c2ccccc2)nnc1C(F)(F)F`, the cell number change was -20.6%. In addition, the AC50 under setting [1] was 14.6 µM [rising, partial curve].

Regarding `COc1ccc([N+](=O)[O-])cc1NC(=O)CCN1CCN(c2ccccc2OC)CC1`, the cell number change was -3.69%. Besides, under setting [2], the concentration at half-maximal activity (AC50) was 6.51 µM [rising, single point].

With `C/C(=N\NC(=O)c1ccc(Br)cc1)c1cccc(NC(=O)c2cccnc2)c1`, the cell number change was -15.4%. Moreover, under setting [1], the AC50 is 16.4 µM [rising, single point].

As for `Cc1ccccc1OCCC(=O)Nc1ccc2c(C)cc(=O)oc2c1`, the cell number change was found to be 32%. Further, the half-maximal activity concentration (AC50) under setting [2] was 29.1 µM [rising, single point]. Besides, under setting [1], the AC50 was 11.6 µM [rising, partial curve].

For the molecule `O=C(COC(=O)c1ccc(F)c(S(=O)(=O)N2CCOCC2)c1)Nc1ccc2c(c1)OCO2`, the cell number change came to 45%. Also, the AC50 under setting [2] is 25.9 µM [rising, single point].

`O=C(Nc1nc2nccc(-c3ccccc3)n2n1)c1ccc(F)cc1`: the cell number change is -26.4%.

In the case of `O=C1C=C(c2cccs2)CC(c2cccs2)C1n1cnc([N+](=O)[O-])c1` (stereo unspecified), the cell number change was -7.95%.

`CC1(C)C(=O)Nc2ccccc2N1C(=O)COC(=O)CSc1ccc(Cl)cc1`: the cell number change came out at 10.9%. Further, the AC50 under setting [1] was 6.51 µM [rising, single point].

As for `COc1ccc(-c2nnnn2C)cc1S(=O)(=O)Nc1ccc(C)cc1C`, the half-maximal activity concentration (AC50) under setting [1] was 29.1 µM [falling, single point].

Regarding `O=C(CSc1cccc[n+]1[O-])c1ccc(-c2ccccc2)cc1`, the cell number change was 30.7%. Further, the AC50 under setting [2] is 29.1 µM [rising, single point].

With `COc1ccc(-c2nc3c4ccccc4[nH]c(=O)n3n2)cc1`, the cell number change is -14.4%. For the same molecule, the concentration at half-maximal activity (AC50) under setting [1] is 0.13 µM [falling, full curve, poor fit].

In the case of `Cc1ccc2c(C)[nH]c(=O)cc2c1`, the cell number change was -26.4%. Moreover, the AC50 under setting [2] is 0.82 µM [falling, full curve, poor fit]. Moreover, the AC50 under setting [1] was 4.11 µM [falling, single point].

For the molecule `COc1ccc(Cl)cc1NC(=O)c1nc2nc(C)cc(C(F)F)n2n1`, the cell number change worked out at 9.56%. Besides, the AC50 under setting [1] was 2.91 µM [rising, single point].

`Clc1ccc(-c2csc(NNC3=NCCCCC3)n2)cc1`: the cell number change is -46%. For the same molecule, the AC50 under setting [2] is 14.6 µM [falling, single point]. Also, the AC50 under setting [1] was 23.1 µM [falling, partial curve, poor fit].

On to `Cc1ccc(S(=O)(=O)NC(CCc2ccccc2)CC(=O)C(C)(C)C)cc1` (stereo unspecified), for which the cell number change amounted to 15.5%. Under setting [1], the AC50 is 8.2 µM [rising, partial curve].

As to `COc1ccccc1OCCNC(=O)CNC(=O)c1ccc(Cl)c(Cl)c1`, the cell number change was found to be 26.1%.

`Cc1ccc(-c2nc3c(c(SCC(=O)N4CCOCC4)n2)Cc2c(CO)cnc(C)c2O3)cc1`: the cell number change was -39.5%. In addition, under setting [2], the AC50 was 11.6 µM [falling, partial curve].

As to `CN1CCN(/N=C2/C(=O)Nc3ccc([N+](=O)[O-])cc32)CC1`, the cell number change is -28.6%. The concentration at half-maximal activity (AC50) under setting [1] is 2.31 µM [falling, partial curve, poor fit].

Regarding `O=C(Nc1ccc(Cl)cc1)c1cc2nc(-c3ccco3)cc(C(F)(F)F)n2n1`, the cell number change is -24.9%. The AC50 under setting [2] is 0.259 µM [falling, full curve, poor fit].

In the case of `CC1CN(C(=O)C(C)N2C(=O)c3ccccc3C2=O)CC(C)O1` (stereo unspecified), the cell number change was -3.2%.

Regarding `CC(Sc1nnc(CNC(=O)c2ccccc2F)n1C)C(=O)Nc1nccs1` (stereo unspecified), the cell number change stood at 21.4%.

Take `COc1ccc(-c2csc(NC(=O)CSc3nc4ccccc4c(=O)[nH]3)n2)cc1`: the cell number change was found to be 87.4%. The AC50 under setting [2] is 29.1 µM [rising, single point]. The AC50 under setting [1] is 29.1 µM [falling, partial curve, poor fit].

Turning to `O=C(Cc1cccc2ccccc12)N1CCCc2ccccc21`, the cell number change was 16.1%. Moreover, the AC50 under setting [1] was 29.1 µM [rising, single point].

Turning to `CCC(C)(C)NC(=O)C(c1ccccc1Cl)N(C(=O)CCC(=O)Nc1cc(C)on1)C(C)(C)C` (stereo unspecified), the cell number change was found to be 2.61%.

For `COc1ccccc1-c1nnc(C2CCN(S(=O)(=O)c3ccc([N+](=O)[O-])cc3)CC2)o1`, the cell number change was -59.3%. In addition, under setting [2], the AC50 was 32.6 µM [falling, partial curve, poor fit]. For the same molecule, the AC50 under setting [1] was 20.6 µM [falling, single point].

In the case of `CCc1ccc(OS(=O)(=O)c2cn(C)c(=O)n(C)c2=O)cc1`, the cell number change is -16.8%. Also, the AC50 under setting [2] was 0.164 µM [falling, full curve, poor fit].

With `CCc1ccccc1NC(=O)CN(C)C(=O)COc1ccc(C)nc1[N+](=O)[O-]`, the cell number change was determined as 7.6%. Under setting [1], the AC50 was 18.4 µM [rising, single point].

For `O=S(=O)(c1ccc(F)cc1)N1CCCC1`, the cell number change is 18.6%. Moreover, the AC50 under setting [1] is 0.58 µM [rising, single point].

In the case of `CCOc1ccccc1/C=N/OCC(=O)NCc1ccc(F)cc1`, the cell number change was 30.4%. Under setting [2], the half-maximal activity concentration (AC50) was 23.1 µM [rising, single point].

Turning to `CCN(CC(=O)NCc1cccs1)C(=O)c1ccc(S(=O)(=O)Nc2ccccc2F)cc1`, the cell number change is 3.61%.

As usually defined, the AC50 is the concentration giving half of the maximal activity seen. A high value points to activity only at high concentration.
